Values quoted from earlier work, collected in patent publication US7795302B2, “Use of compositions for treating rosacea” (The Regents of the University of Michigan, priority 2001, dated 2010).
At least one structure is not confirmed: it was looked up by name or label, or the drawing left a doubt.

Test system: AP-1
Conditions: cultured human keratinocytes; units printed with the value

For `O=C(O[C@@H]1Cc2c(O)cc(O)cc2O[C@@H]1c1cc(O)c(O)c(O)c1)c1cc(O)c(O)c(O)c1` [EGCG, (−)-Epigallocatechin-3-gallate], the “dose range in which UVB-induced AP-1 activity is inhibited” value is given as 0.00545 to 54.5 µM.
